This is an account of results in patent publication US20120141504A1 (MAYO FOUNDATION FOR MEDICAL EDUCATION AND RESEARCH, published 2012).

The target in this test is T1, B7-H2 expressed on transfected 293 cells (UniProt O75144).
T1 sequence (looked up): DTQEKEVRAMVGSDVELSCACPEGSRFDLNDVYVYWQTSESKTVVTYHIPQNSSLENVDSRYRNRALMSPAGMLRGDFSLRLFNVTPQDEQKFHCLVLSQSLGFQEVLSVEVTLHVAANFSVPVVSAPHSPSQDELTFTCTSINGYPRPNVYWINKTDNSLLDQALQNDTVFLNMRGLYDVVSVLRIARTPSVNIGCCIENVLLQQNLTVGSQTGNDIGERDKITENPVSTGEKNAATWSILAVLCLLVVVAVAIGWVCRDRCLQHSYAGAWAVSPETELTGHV
The test is described as follows: flow cytometry on transfected 293 cells. In general terms: In flow cytometry, cells or beads pass a laser one at a time.

Results are given in words; binding and its absence hold for the method and conditions named. Some results given as binding are weak or reduced against the parent protein; the word gives no strength. Where a sequence is shown, tags or fusion partners need not be part of it.

B1: ICOSIg fusion protein (Fc fusion, UniProt Q9Y6W8 21-140, looked up)
chain: EINGSANYEMFIFHNGGVQILCKYPDIVQQFKMQLLKGGQILCDLTKTKGSGNTVSIKSLKFCHSQLSNNSVSFFLYNLDHSHANYYFCNLSIFDPPPFKVTLTGGYLHIYESQLCCQLK
notes: extracellular domain; Described as an analogous fusion protein prepared by a method similar to that for B7-H3Ig (extracellular domain fused to mouse IgG2a Fc); not shown: Fc constant region of mouse IgG2a
B1: the binding entry was “binds”.
